Laboratory results: patent US20170119727A1, “A THERAPEUTIC PROTOCOL FOR TREATING OVARIAN CANCER” (Bionomics Limited, priority 2014, published 2017)

System: ferritin, interleukin-8, interleukin-16 and macrophage inflammatory protein-1β
Assay: Phase I clinical trial: plasma biomarker studies
Type: in vivo, female ovarian cancer subjects (patients)
Details: following Example 2 at 12 mg/m^2; relative to pre-treatment baseline

COc1cc(C(=O)c2c(C)oc3c(OP(=O)([O-])[O-])c(OC)ccc23)cc(OC)c1OC.[Na+].[Na+] [Example 2, Disodium 6-methoxy-2-methyl-3-(3,4,5-trimethoxybenzoyl)benzofuran-7-yl phosphate]
increase significantly and transiently: Plasma concentration of ferritin | Plasma concentration of interleukin-8 | Plasma concentration of interleukin-16 | Plasma concentration of macrophage inflammatory protein-1β
